Values of other authors in patent publication US10702537B2, “Devices and methods of treating methamphetamine addiction and medical and behavioral consequences of methamphetamine use and of HIV infection” (Board of Supervisors of Louisiana State University and …, priority 2015, dated 2020).

Conditions: humans; cited from earlier work

Question: Which “rate of absorption compared to alprazolam” value does the source give for `O=C1Nc2ccc(Cl)cc2C(c2ccccc2)=NC1O` (stereo not shown) [oxazepam, 7-chloro-1,3-dihydro-3-hydroxy-5-phenyl-2H-1,4-benzodiazepin-2-one] here?
Answer: Its value is “more slowly absorbed”.
